Test results: article PMC2390528
Where two headings read alike, the source gives them in different places. No constants are given. Whether binding was seen depends on the method and setting. Binding seen in cells or lysates may run through a third protein. Some entries that bind do so weakly or less than the wild type.

The chains behind the UniProt entries cited, without tags or fusion partners.
UniProt Q14974: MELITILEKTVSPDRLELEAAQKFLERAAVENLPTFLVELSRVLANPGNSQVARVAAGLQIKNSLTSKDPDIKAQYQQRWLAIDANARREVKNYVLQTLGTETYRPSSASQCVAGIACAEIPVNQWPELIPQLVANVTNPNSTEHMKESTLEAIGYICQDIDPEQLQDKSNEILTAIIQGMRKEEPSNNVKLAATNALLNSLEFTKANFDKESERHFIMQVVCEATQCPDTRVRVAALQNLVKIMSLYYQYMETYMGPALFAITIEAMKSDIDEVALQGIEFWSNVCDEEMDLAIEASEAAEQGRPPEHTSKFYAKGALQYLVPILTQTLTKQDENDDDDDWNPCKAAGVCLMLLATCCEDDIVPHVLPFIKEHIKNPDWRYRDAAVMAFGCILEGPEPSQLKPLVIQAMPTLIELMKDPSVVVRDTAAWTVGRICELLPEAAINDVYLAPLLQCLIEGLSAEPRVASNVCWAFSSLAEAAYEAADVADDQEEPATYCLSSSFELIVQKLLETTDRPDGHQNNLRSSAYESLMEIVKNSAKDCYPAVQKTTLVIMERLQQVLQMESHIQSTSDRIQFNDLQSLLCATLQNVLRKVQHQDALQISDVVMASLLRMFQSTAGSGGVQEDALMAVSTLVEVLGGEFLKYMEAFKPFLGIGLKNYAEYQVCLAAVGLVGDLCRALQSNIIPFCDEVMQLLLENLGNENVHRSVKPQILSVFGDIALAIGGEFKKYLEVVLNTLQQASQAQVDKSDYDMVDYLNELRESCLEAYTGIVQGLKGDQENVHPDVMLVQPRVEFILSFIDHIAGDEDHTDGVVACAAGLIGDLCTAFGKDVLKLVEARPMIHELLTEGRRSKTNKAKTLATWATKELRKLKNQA
UniProt P14635: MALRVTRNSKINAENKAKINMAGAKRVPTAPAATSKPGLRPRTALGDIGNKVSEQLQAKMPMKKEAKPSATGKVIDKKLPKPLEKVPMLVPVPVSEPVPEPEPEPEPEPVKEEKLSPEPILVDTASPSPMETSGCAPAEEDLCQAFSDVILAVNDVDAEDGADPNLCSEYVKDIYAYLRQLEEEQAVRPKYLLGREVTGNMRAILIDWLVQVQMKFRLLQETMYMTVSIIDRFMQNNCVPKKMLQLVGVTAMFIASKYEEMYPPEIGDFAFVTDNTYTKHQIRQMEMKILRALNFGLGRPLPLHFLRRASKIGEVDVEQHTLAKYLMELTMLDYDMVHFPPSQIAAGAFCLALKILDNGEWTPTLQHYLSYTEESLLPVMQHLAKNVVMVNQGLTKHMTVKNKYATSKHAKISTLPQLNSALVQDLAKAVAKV
UniProt P12520: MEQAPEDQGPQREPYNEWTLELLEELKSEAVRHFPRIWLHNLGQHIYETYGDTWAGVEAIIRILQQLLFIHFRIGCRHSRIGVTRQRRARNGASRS
UniProt P53350: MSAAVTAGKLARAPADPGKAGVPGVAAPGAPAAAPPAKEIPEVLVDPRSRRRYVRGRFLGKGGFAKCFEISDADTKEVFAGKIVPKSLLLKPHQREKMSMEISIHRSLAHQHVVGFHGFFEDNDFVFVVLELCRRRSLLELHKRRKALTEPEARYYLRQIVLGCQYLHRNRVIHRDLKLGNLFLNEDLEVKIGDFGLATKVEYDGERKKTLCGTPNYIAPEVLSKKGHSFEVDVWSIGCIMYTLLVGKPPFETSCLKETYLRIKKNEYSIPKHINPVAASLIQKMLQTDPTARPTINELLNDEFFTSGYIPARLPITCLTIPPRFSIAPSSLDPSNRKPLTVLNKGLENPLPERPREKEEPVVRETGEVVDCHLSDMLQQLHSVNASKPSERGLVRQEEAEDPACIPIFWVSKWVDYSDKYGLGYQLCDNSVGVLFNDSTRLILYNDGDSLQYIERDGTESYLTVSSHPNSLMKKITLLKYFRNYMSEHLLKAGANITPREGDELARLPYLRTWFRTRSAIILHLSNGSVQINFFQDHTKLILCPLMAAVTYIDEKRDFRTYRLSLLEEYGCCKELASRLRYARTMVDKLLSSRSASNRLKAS

Tests used:
Experiment in all cases: co-IP
[1] = molecular target: importin β (human (endogenous in Jurkat)) (UniProt Q14974)
[2] = molecular target: T1, 14-3-3 θ (human (endogenous in Jurkat)) (UniProt P27348)
T1 sequence: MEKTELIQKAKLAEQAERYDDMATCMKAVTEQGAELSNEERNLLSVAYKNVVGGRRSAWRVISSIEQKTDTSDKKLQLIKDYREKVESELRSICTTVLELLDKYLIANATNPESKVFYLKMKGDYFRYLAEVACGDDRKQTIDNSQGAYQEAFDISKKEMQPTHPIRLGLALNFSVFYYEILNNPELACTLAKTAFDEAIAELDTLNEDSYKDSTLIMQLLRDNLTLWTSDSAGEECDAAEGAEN

[3] = molecular target: T1, 14-3-3 θ (human (endogenous in Jurkat)); remark: listed apart in the source

CyclinB1 (from UniProt P14635 1-433)
binding [1]: binds
binding [2]: binds

HIV-1 Vpr (viral protein R), wild type, expressed from the NL4-3 provirus in infected cells (from UniProt P12520 1-96)
binding [2]: binds

Polo-like kinase 1 (from UniProt P53350 1-603)
binding [1]: binds
binding [2]: binds

importin β (from UniProt Q14974 1-876)
binding [2]: binds

B1: Cdc25C phosphorylated on serine-216 (protein, UniProt P30307 1-473)
chain: MSTELFSSTREEGSSGSGPSFRSNQRKMLNLLLERDTSFTVCPDVPRTPVGKFLGDSANLSILSGGTPKRCLDLSNLSSGEITATQLTTSADLDETGHLDSSGLQEVHLAGMNHDQHLMKCSPAQLLCSTPNGLDRGHRKRDAMCSSSANKENDNGNLVDSEMKYLGSPITTVPKLDKNPNLGEDQAEEISDELMEFSLKDQEAKVSRSGLYRSPSMPENLNRPRLKQVEKFKDNTIPDKVKKKYFSGQGKLRKGLCLKKTVSLCDITITQMLEEDSNQGHLIGDFSKVCALPTVSGKHQDLKYVNPETVAALLSGKFQGLIEKFYVIDCRYPYEYLGGHIQGALNLYSQEELFNFFLKKPIVPLDTQKRIIIVFHCEFSSERGPRMCRCLREEDRSLNQYPALYYPELYILKGGYRDFFPEYMELCEPQSYCPMHHQDHKTELLRCRSQSKVQEGERQLREQIALLVKDMSP
binding [3]: binds

B2: Cdc25C (protein, UniProt P30307 1-473)
chain: MSTELFSSTREEGSSGSGPSFRSNQRKMLNLLLERDTSFTVCPDVPRTPVGKFLGDSANLSILSGGTPKRCLDLSNLSSGEITATQLTTSADLDETGHLDSSGLQEVHLAGMNHDQHLMKCSPAQLLCSTPNGLDRGHRKRDAMCSSSANKENDNGNLVDSEMKYLGSPITTVPKLDKNPNLGEDQAEEISDELMEFSLKDQEAKVSRSGLYRSPSMPENLNRPRLKQVEKFKDNTIPDKVKKKYFSGQGKLRKGLCLKKTVSLCDITITQMLEEDSNQGHLIGDFSKVCALPTVSGKHQDLKYVNPETVAALLSGKFQGLIEKFYVIDCRYPYEYLGGHIQGALNLYSQEELFNFFLKKPIVPLDTQKRIIIVFHCEFSSERGPRMCRCLREEDRSLNQYPALYYPELYILKGGYRDFFPEYMELCEPQSYCPMHHQDHKTELLRCRSQSKVQEGERQLREQIALLVKDMSP
binding [3]: binds
